# The list shows a part of the results. Shown are side measurements of this screen, not its main read-out; they come without a call. Compounds called inactive in the main read-out are mostly missing here. The note in brackets gives the kind of curve behind each potency; many fits are weak.
# Assay: qHTS Assay for Lipid Storage Modulators in Drosophila S3 Cells;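 as to cell number change: cells counted by Cell Tracker Red CMTPX staining in the red channel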
# Conditions: BODIPY lipid droplet fluorescence, 18-24 h; for cell number change: measured here: cell count max response, cells fed with added oleic acid
# In short: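 Drosophila S3 cells got compounds at several concentrations plus oleic acid (400 uM solution). Laser-scanning cytometry with 488 nm excitation read lipid droplets at 500-530 nm and cells at 575-640 nm. Percent activity was relative to 20 uM Triacsin C.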
# [1] = measured here: cell number channel AC50, cells fed with added oleic acid
# [2] = measured here: lipid fluorescence (Fed channel) AC50, cells fed with added oleic acid
SMILES,cell number change [%],AC50 [1],AC50 [2]
NC(=O)CN1CCOCCOCCOCCOCCOCC1,-38.9,"18.4 µM [falling, single point]",–
Cc1ccc(S(=O)(=O)n2nc(-n3c(C)ccc3C)c3c(F)cccc32)c2ccccc12,–,"0.517 µM [rising, partial curve]",–
Cn1nc([N+](=O)[O-])nc1Sc1nnc(-c2ccccc2)o1,-40.3,–,"23.1 µM [falling, single point]"
Cc1ccc(N2C(=O)N(CC(=O)Nc3ccccc3C)C(=O)C2C)cc1 (centres undefined),-24.6,–,–
CCOC(=O)C1=C(CNCc2ccc(C)cc2)NC(=O)NC1c1ccc(OC)cc1 (centres undefined),-6.28,–,–
Cc1ccc(S(=O)(=O)N2CCN(C(=O)c3ccccc3)C2C(C)C)cc1 (centres undefined),–,"0.259 µM [falling, full curve, poor fit]",–
COC(=O)C(=C/C=C/c1ccco1)C(=O)OC,–,"0.103 µM [falling, partial curve, poor fit]",–
Cc1nn(-c2ccccc2)c2sc(C(=O)OCc3nnc(-c4ccccc4)o3)cc12,2.21,"1.46 µM [rising, full curve]","1.3 µM [rising, partial curve]"
Cc1ccc(Cl)c2c1NC(=O)C2(O)CC(=O)c1ccc(F)cc1 (centres undefined),6.19,–,–
O=C(Nc1ncc(C(F)(F)F)cc1Cl)c1ccc(S(=O)(=O)N2CCOCC2)cc1,4.47,–,–
Cc1ccc(C(=O)Nc2ccc(NC(=O)c3cccs3)cc2)c(C)c1,297,"29.1 µM [rising, partial curve]","29.1 µM [falling, single point]"
CCN(C(=O)COC(=O)c1ccc2[nH]c3c(c2c1)CCCC3)C1CCS(=O)(=O)C1 (centres undefined),-26.8,–,"29.1 µM [falling, single point]"
O=C(CCCn1ncn2c(cc3occc32)c1=O)N1CCc2ccccc2C1,-34.7,"13 µM [falling, single point]","20.6 µM [falling, single point]"
CCC(C)/C(C)=N/NC(=O)c1ccc(CSc2nc3ccccc3s2)cc1 (centres undefined),34.4,"16.4 µM [rising, single point]","29.1 µM [rising, partial curve]"
CC(=O)/C(=N/Nc1ccccc1Cl)Sc1nnc(C(O)c2ccccc2)n1-c1ccccc1 (centres undefined),1.18,–,"18.4 µM [rising, partial curve]"
CCCC(c1nnnn1C(C)(C)C)N1CCN(Cc2ccccc2)CC1 (centres undefined),21,–,"5.8 µM [rising, partial curve, poor fit]"
O=C(c1ccc([N+](=O)[O-])cc1[N+](=O)[O-])N1CCc2ccccc21,-11.8,–,–
CC(C)CN(C(=O)c1cccc([N+](=O)[O-])c1)c1c(N)n(CC(C)C)c(=O)[nH]c1=O,34.2,"29.1 µM [rising, single point]",–
C[C@H](NC(=O)NCCc1ccccc1)C(=O)O,-33.2,"32.6 µM [falling, partial curve, poor fit]","0.92 µM [rising, full curve, poor fit]"

SMILES,cell number change [%],AC50 [1],AC50 [2]
CC(OC(=O)/C(C#N)=C/c1ccc(N(C)C)cc1)C(=O)NCc1ccco1 (centres undefined),46.9,"8.2 µM [rising, partial curve]",–
CCN(Cc1nc2ccccc2c(=O)[nH]1)C(=O)COc1ccccc1Cc1ccccc1,-35.3,"16.4 µM [falling, single point]","16.4 µM [falling, single point]"
CCn1ncc2c(OCc3ccc(C#N)cc3)cc(C)nc21,11.9,–,"29.1 µM [rising, single point]"
COc1ccc(C(CNC(=O)c2cccc(S(=O)(=O)N3CCCC3)c2)N2CCCC2)cc1 (centres undefined),25.9,–,"2.91 µM [rising, full curve, poor fit]"
CC(C)CN1C(=O)c2ccc(C(=O)NCc3ccc4c(c3)OCO4)cc2C1=O,10,"1.46 µM [rising, partial curve, poor fit]","0.0146 µM [rising, single point]"
CN1CCc2ccccc2C1Cc1ccccc1NC(=O)c1sc2ccccc2c1Cl (centres undefined),104,"29.1 µM [rising, single point]","29.1 µM [rising, partial curve]"
C=CCn1c(SCC(=O)c2ccc(O)c(O)c2)nnc1-c1cccc(OC)c1,-4.79,–,–
COc1ccc(/C=C\c2onc(C)c2S(=O)(=O)N2CCC(C(=O)NCCC(C)C)CC2)cc1,-41.2,–,–
C1=CCC(/C=N/n2cnnc2)CC1 (centres undefined),-20.9,–,"0.0461 µM [falling, full curve, poor fit]"
COc1ccc(C2=NOC(C(=O)NCc3ccccc3)C2)cc1 (centres undefined),-20.8,–,"7.31 µM [falling, partial curve, poor fit]"
Cc1cccn2c(=O)c(/C=C(\C#N)C(N)=O)c(N3CCCCCC3)nc12,–,"5.8 µM [falling, single point]",–
Cc1ccc(-n2nnnc2/C=C\Nc2cc(C)on2)cc1,22.4,–,"6.51 µM [rising, partial curve]"
CC(SC1=NCCN1S(C)(=O)=O)c1ccccc1 (centres undefined),-18.6,–,"0.731 µM [falling, single point]"
CCN(C(=O)CN1CCN(c2ccccc2F)CC1)c1c(N)n(Cc2ccccc2)c(=O)[nH]c1=O,28,"5.17 µM [rising, full curve, poor fit]",–
Cc1ccc(C(C)C)c(OCCN(C)C)c1,44.6,"29.1 µM [rising, single point]",–
O=C(COc1ccccc1)NCC1(N2CCCCC2)CCCCC1,-76.7,"2.06 µM [falling, partial curve]","2.06 µM [falling, partial curve]"
CNS(=O)(=O)c1cccc(C(=O)OCC(=O)Nc2ccc(-c3nc4ccc(C)cc4s3)cc2)c1,20.1,–,–
CCN(CC)S(=O)(=O)c1ccc2[nH]cc(C(=O)NCCN3CCCCCC3)c(=O)c2c1,-23.4,–,"2.91 µM [rising, full curve]"
Cc1cc(C)nc(Nc2n[nH]c(COc3ccc4ccccc4c3)n2)n1,-7.82,"1.84 µM [rising, partial curve]","1.64 µM [rising, partial curve]"

# Pulled by compound from the entries so far:
SMILES,cell number change [%],AC50 [1],AC50 [2]
C1=CCC(/C=N/n2cnnc2)CC1 (centres undefined),-20.9,–,"0.0461 µM [falling, full curve, poor fit]"
Cc1cccn2c(=O)c(/C=C(\C#N)C(N)=O)c(N3CCCCCC3)nc12,–,"5.8 µM [falling, single point]",–
